Data as given in PubChem BioAssay AID652272 (Drosophila RNAi Screening Center, 2013).

Test: 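Genes whose knock-down decreases or increases Hedgehog reporter output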 (primary screen)
Cell system: Drosophila clone 8 (Cl8) cells
Reagents: long dsRNA against Drosophila genes
Measured: 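Plate reader light from a firefly reporter under a ptc promoter fragment that responds to Hedgehog, with Renilla light as transfection reference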
Direction: firefly Hh reporter signal: higher = more ptc reporter light; Renilla reference signal: higher = more Renilla control light
Rule for the call: 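Hit when the z-score averaged over two replicates is under -2 or over +3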
Meaning of the calls: active = hit: reporter lowered or raised; inactive = not a hit
The deposit covers about 21,000 reagents; this is an unselected part of those with a known target gene and a result. Of all reagents, 503 (2.4%) were called active. 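Raw plate light values, not normalised; calls rest on replicate z-scores that were not deposited; hits include reporter decreases as well as increases.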 The numbers tell different reagents against one gene apart. Names joined by + are all predicted targets of the reagent. No sequences are given here. The record does not give: the amount of reagent, the time to read-out.

| predicted target | dsRNA no. | firefly Hh reporter signal, replicate 1 | firefly Hh reporter signal, replicate 2 | firefly Hh reporter signal, replicate 3 | Renilla reference signal, replicate 1 | Renilla reference signal, replicate 2 | outcome |
| --- | --- | --- | --- | --- | --- | --- | --- |
| NimB5 (Nimrod B5) | 1 | 1.29e5 | 61980 | – | 3424 | 5809 | inactive |
| CG14147 | 1 | 34289 | 31324 | 59041 | 3744 | 4480 | inactive |
| mora (morgana) | 1 | 4.89e5 | 79084 | – | 26589 | 2592 | inactive |
| CG9168 | 1 | 71409 | 28043 | – | 2100 | 2200 | inactive |
| Snx21 (Sorting nexin 21) | 1 | 82423 | 73760 | – | 3382 | 3155 | inactive |
| CG32547 | 1 | 5.36e5 | 2.03e5 | – | 30210 | 3339 | inactive |
| CG32547 | 2 | 6.73e5 | 2.11e5 | – | 35402 | 4732 | inactive |
| CG32547 | 3 | 97478 | 2.17e5 | – | 1975 | 8480 | inactive |
| CG32547 | 4 | 88720 | 2.63e5 | – | 2092 | 8448 | inactive |
| Kdsr (3-ketodihydrosphingosine reductase) | 1 | 5.29e5 | 88071 | – | 3552 | 3552 | inactive |
| CG11854 | 1 | 4.71e5 | 99360 | – | 25116 | 2502 | inactive |
| Or24a (Odorant receptor 24a) | 1 | 69706 | 54128 | – | 1408 | 5600 | inactive |
| CG1824 | 1 | 1.04e5 | 3.56e5 | – | 3331 | 11035 | inactive |
| Pebp1 (Phosphatidylethanolamine-binding protein 1) | 1 | 7.74e5 | 1.43e5 | – | 51965 | 365 | inactive |
| Drep2 (DNA fragmentation factor-related protein 2) | 1 | 1.03e5 | 64610 | – | 3850 | 2394 | inactive |
| Atac1 (Ada2a-containing complex component 1) | 1 | 1.31e5 | 61676 | – | 3301 | 6760 | inactive |
| CG12539 | 1 | 82528 | 1.76e5 | – | 2705 | 6877 | inactive |
| Cap-D3 + tomb | 1 | 1.02e5 | 49568 | – | 1778 | 4738 | inactive |
| Smyd4-2 (SET and MYND domain containing, class 4, member 2) | 1 | 95413 | 51801 | 41893 | 6156 | 2388 | inactive |
| Osi2 (Osiris 2) | 1 | 90915 | 70769 | – | 3830 | 2214 | inactive |
| Ir52d (Ionotropic receptor 52d) | 1 | 99632 | 39289 | – | 2720 | 1457 | inactive |
| THADA | 1 | 1.38e5 | 1.59e5 | – | 3440 | 3641 | inactive |
| CG32237 | 1 | 80743 | 71075 | – | 8451 | 4740 | inactive |
| CG32237 | 2 | 80896 | 72017 | – | 9681 | 5706 | inactive |
| Pp1alpha-96A (Protein phosphatase 1alpha at 96A) | 1 | 6.37e5 | 1.22e5 | – | 32551 | 3237 | inactive |
| Tsp42Eb + CG30160 | 1 | 1.48e5 | 2.41e5 | – | 3595 | 9850 | inactive |
| Tsp42Eb + CG30160 | 2 | 1.01e5 | 64586 | – | 2617 | 6347 | inactive |
| CG2187 | 1 | 97882 | 1.98e5 | – | 3810 | 8336 | inactive |
| CG5921 | 1 | 6.17e5 | 2.35e5 | – | 34754 | 4554 | inactive |
| CG5921 | 2 | 52036 | 1.62e5 | – | 1304 | 6955 | inactive |
| Gug (Grunge) | 1 | 42432 | 91056 | – | 5088 | 6100 | inactive |
| CG2247 | 1 | 1.36e5 | 73056 | – | 3095 | 2020 | inactive |
| RpS4 (Ribosomal protein S4) | 1 | 32232 | 9133 | 24583 | 2848 | 2890 | active |
| CG31705 | 1 | 71298 | 75793 | – | 3568 | 3527 | inactive |
| Or85e (Odorant receptor 85e) | 1 | 68453 | 1.22e5 | – | 1701 | 3511 | inactive |
| fig (fos intronic gene) | 1 | 81879 | 1.63e5 | – | 1624 | 7920 | inactive |
| mRpS17 (mitochondrial ribosomal protein S17) | 1 | 89570 | 59384 | – | 2566 | 5792 | inactive |
| atk (artichoke) | 1 | 4.62e5 | 1.89e5 | 90164 | 3577 | 3552 | inactive |
| atk (artichoke) | 2 | 1.20e5 | 84941 | – | 4410 | 2612 | inactive |
| dpr17 (defective proboscis extension response 17) | 1 | 50176 | 2.08e5 | – | 10388 | 4561 | inactive |
| dpr17 (defective proboscis extension response 17) | 2 | 25571 | 59723 | – | 1291 | 2140 | inactive |
| dpr17 (defective proboscis extension response 17) | 3 | 51948 | 1.49e5 | – | 1485 | 4155 | inactive |
| Dek | 1 | 90080 | 64326 | – | 4055 | 3217 | inactive |
| Tengl1 (Testis EndoG-Like 1) | 1 | 90729 | 60817 | – | 2436 | 1576 | inactive |
| CG8468 | 1 | 1.24e5 | 42525 | – | 3520 | 1221 | inactive |
| Chchd2 (Coiled-coil-helix-coiled-coil-helix domain containing 2) | 1 | 97404 | 3.91e5 | – | 2346 | 15368 | inactive |
| beta-Spec (beta Spectrin) | 1 | 76842 | 2.54e5 | – | 3075 | 9100 | inactive |
| mRpS7 (mitochondrial ribosomal protein S7) | 1 | 95365 | 94976 | – | 2969 | 3200 | inactive |
| Tao | 1 | 1.76e5 | 6.24e5 | 1.36e5 | 3312 | 32982 | inactive |
| Tao | 2 | 1.44e5 | 6.43e5 | 2.51e5 | 5588 | 5248 | inactive |
| CG9951 | 1 | 1.15e5 | 55778 | – | 4349 | 2240 | inactive |
| bgm (bubblegum) | 1 | 37968 | 36002 | – | 2956 | 2881 | active |
| APC7 (Anaphase Promoting Complex subunit 7) | 1 | 73098 | 65200 | – | 1773 | 1540 | inactive |
| CG15734 | 1 | 75826 | 3.39e5 | – | 2893 | 12688 | inactive |
| CG40245 (retired record) | 1 | 4.63e5 | 2.09e5 | – | 24004 | 5001 | inactive |
| yellow-b | 1 | 66597 | 46205 | – | 2679 | 2320 | inactive |
| dgt6 (dim gamma-tubulin 6) | 1 | 76932 | 66897 | – | 1664 | 2034 | inactive |
